Experimental data taken from publication PMC2629585.
No constants are given. Whether binding was seen depends on the method and setting. A result given as binding can be weak or reduced; the word gives no strength.

Molecular target: recombinant FBG domain of L-ficolin (L-rFBG) (human)
Assay: ELISA; 0.8 ug L-rFBG immobilised first, 0.8 ug CRP added; normalised to directly immobilised protein as 100%; both purified

binding: binds
B1: C-reactive protein (CRP), human, purified (Sigma) (protein, UniProt P02741 19-224)
chain: QTDMSRKAFVFPKESDTSYVSLKAPLTKPLKAFTVCLHFYTELSSTRGYSIFSYATKRQDNEILIFWSKDIGYSFTVGGSEILFEVPEVTVAPVHICTSWESASGIVEFWVDGKPRVRKSLKKGYTVGAEASIILGQEQDSFGGNFEGSQSLVGDIGNVNMWDFVLSPDEINTIYLGGPFSPNVLNWRALKYEVQGEVFTKPQLWP
